The campaign covered roughly 52,000 sequences. About 210 (0.4%) were called active.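 Rule for the calls: active = gene whose silencing raises cell survival under the drug, median off-target-corrected z-score across its silencing RNAs 2 or more; inactive = the rest.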 The list shows a part of the results.

A short description of this assay: Resistance to Poly (ADP-Ribose) Polymerase inhibitor: Gene Identification via Genome-wide siRNA Screen. To be noted: mouse BRCA2 R2336H ES cells, olaparib, CellTiter-Glo viability; stronger effect = higher value. The procedure, abridged:
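Mouse BRCA2 R2336H ES cells were reverse-transfected with siRNA (20 nM final), treated at 48 h with 500 nM olaparib, and read by CellTiter-Glo after 72 h. Scores: MAD-based z per siRNA, median per gene, seed off-target correction.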
(In general: ATP-based viability assays read luminescence as a measure of living cells.)
On to GGUGUGCUGAGAAAAAAUATT against Acate3, for which the z-score is inactive: -0.735.

As for GGUAGACCAGCUUGCUAAUTT against Plxnb1, the z-score is inactive: 1.81.

GCCGAUUUUUGGGAAUAAATT against Ptpn20: the z-score was inactive: -1.38.

With GGGAUUACUUGUAACAUCATT against Abcc2, the z-score was inactive: 1.34.

For “GCUGAUUCUUCACUUUGUGTT against 2310005O14Rik”, the z-score was inactive: 0.15.

With “GCUGGUGGAUCAGAUUGAGTT against 5430431G03Rik”, the z-score is inactive: 1.51.

In the case of GGCUUGUUACCACAUGCUGTT against BC032204, the z-score is inactive: 0.664.

As to CCUAGAGAUUGGUAUGUACTT against Gm644, the z-score was inactive: 1.33.

In the case of GGAAAAUGUUCAUCUCUCATT against Oact2, the z-score was inactive: 0.622.

As for GGAUGACAGUUGAAUCGCCTT against Sepm, the z-score is inactive: 0.663.

Take “GGCUCUGAAAAUUGAACACTT against 4921537D05Rik”: the z-score is inactive: -1.94.

Consider GGGAUCAUAAAGAUAACUUTT against Fasn, for which the z-score is inactive: 0.581.

Turning to GGGACUAAUUCCAAUUUCATT against Pomt1, the z-score was inactive: -1.85.

Consider GGCAGUGGAGCUGGACAAATT against Nkx2-5, for which the z-score is inactive: -1.98.

For the sequence GCGGGUCAUAAAUCUGAUUTT against Aldh3a1, the z-score was inactive: 0.0646.

GGCCAAGUUUGACAAGGAATT against Nap1l5: the z-score is inactive: 3.05.

With “GCGUGUAUUCCACUCAUAATT against 2900045N06Rik”, the z-score was inactive: -0.759.

With AACCAUUCAGGAGAAAGCCTT against Sprrl3, the z-score is inactive: -0.332.

For “CCGAAAGAACAAACAAAGGTT against 4930583H14Rik”, the z-score was inactive: 0.902.

With GGUAGAACAUGAAGUCUCUTT against Siat7d, the z-score was inactive: 0.254.

In the case of GGAUCAUUAACCCUGAAAUTT against Dscam, the z-score was inactive: -0.543.

As to GCCAACUAUACAUCUUAUCTT against Sftpa1, the z-score is inactive: -0.189.

Regarding GGAGAACUUUGAUAUGGAGTT against Cuedc2, the z-score is inactive: -0.00918.

As for GGAUUACUGAUCUCCAAAATT against Cenpe, the z-score was inactive: -0.448.

In the case of GCAGACUCCAUGCAAAACUTT against Slc5a8, the z-score is inactive: 0.698.

With “GGACUAUCUAGCAUAUACUTT against E130006D01Rik”, the z-score is inactive: -0.253.

On to GGCCUAAUCGAAAUGUGGCTT against Trim12, for which the z-score was inactive: 2.13.

With CCAGGUAUUCUGAUAUCAGTT against Cd209d, the z-score was inactive: 3.16.

Take GGGAAAGGAAGUUGUUUUGTT against Epha2: the z-score is inactive: -0.169.

Regarding GCCUUGAUCCUACUGUAACTT against Amigo3, the z-score was inactive: 1.32.

As to GGUGCUUCUAAACUCAGAGTT against Spg20, the z-score is inactive: -0.0377.

Turning to AUUGUAGCAGUGAAUUGGATT against Pdia6, the z-score was inactive: -0.255.

As for CCCUCGGUGCCUAAUAAAUTT against Hadh2, the z-score is inactive: 0.14.

With CCUACUCAAAUGAAGUUGUTT against Pctk2, the z-score was inactive: -0.346.

For GCACAAUCCGGUCAACAUGTT against Zbp1, the z-score is inactive: -1.11.

GGAGAAAGACAUCAGAAAGTT against CRAD-L: the z-score was inactive: 0.666.

As to UGUGGUCUUAGAAUCUAGCTT against Tdpoz3, the z-score is inactive: 1.88.

“GGGUACAUUACACUCAGGATT against 2610204G22Rik”: the z-score was inactive: -0.179.

“GCUAUCAUGCAAGAUGGCATT against 0610025P10Rik”: the z-score was inactive: 0.0123.

Take GCACAACUUUGAGGUGUGGTT against Plekha4: the z-score was inactive: -0.344.

In the case of “GCUCAACUUGGAAUUGGAGTT against B130017I01Rik”, the z-score was inactive: 0.644.

Consider GCAGCUAGCAUAUAAUAACTT against Il21r, for which the z-score is inactive: -0.349.

As to “GGGAAUGUCUGAAAGUCCCTT against 2410127E18Rik”, the z-score was inactive: 0.245.

In the case of GCUUAAUUUCAUUUCAAGGTT against B3gnt5, the z-score is inactive: 0.00424.

“GCUAAAGGAGUAUAAUAGUTT against A130066N16Rik”: the z-score is inactive: 1.06.

For the sequence GGUGAACAAGAAAGAAGUCTT against Rpl3, the z-score is inactive: -2.46.

Turning to “GGCUAAAUCUCACACUCCATT against 2010001M09Rik”, the z-score is inactive: 0.462.

GGCCAGAUUAACACUUACUTT against Eif3s3: the z-score was inactive: -1.04.

Regarding GCUCUUUCAUGUUAUUGAUTT against Dicer1, the z-score was inactive: 1.36.

In the case of CGUAUUCCCAAAUGUGAUGTT against Pcbp3, the z-score is inactive: -0.237.

In the case of “GCUCAUCGUACCAUUUUCUTT against 9230105E10Rik”, the z-score was inactive: 0.734.

Take GCAGCAGAAUGCUAGAAAATT against Mtrf1: the z-score is inactive: -1.07.

For GGCCUUUUCUCAUCUCUGGTT against Igfals, the z-score was inactive: -0.0297.

As for GCCUUAGAGCUUGUAACUATT against Nbl1, the z-score is inactive: -0.301.

For UGGUUGUAUUAUUCUGUUGTT against Defb38, the z-score was inactive: 1.33.

Take “GGCUUUCCGCGCUAUUGAUTT against 5330414D10Rik”: the z-score is inactive: 0.113.

In the case of GGCUAUGGGAAAUAUAAGATT against Pde1b, the z-score was inactive: -0.0685.

AGCCAAAGAAUGCAAAACATT against Snrpn: the z-score is inactive: -0.329.

As for AGCUAAAAGAUCAUUGGAGTT against Ear10, the z-score is inactive: -0.759.

As to GGAAUUCAUGGAUAAGAAGTT against Hnmt, the z-score is inactive: -1.02.

Turning to GCCAGUGUCCCUAAUAAGGTT against Ager, the z-score was inactive: -0.71.

As to GGUGCACACAAUAAAUUAATT against Fcgr3, the z-score was inactive: -0.545.

Consider GGAGAAAUUCAAAAGGAAUTT against Ms4a11, for which the z-score was inactive: 0.692.

In the case of GGAGGACAUAAAAUAUCUATT against Trim17, the z-score was inactive: 0.855.

Turning to “GAACGGCUACAUCUGUUACTT against 9930021D14Rik”, the z-score was inactive: 0.0544.

For GGACACAGAUGGUUUGUAUTT against Chc1, the z-score was inactive: -0.192.

For the origin of these results see PubChem BioAssay AID1347423 (Functional Genomics Laboratory (NCATS/FGL), 2020).
